Experimental data: PMC11925728, “Homeodomain protein PRRX1 anchors the Ku heterodimers at DNA double-strand breaks to promote nonhomologous end-joining”
Results are given in words; binding and its absence hold for the method and conditions named. Binding calls can cover weak binding; strength is not graded here. For some assays here: In cells and extracts the contact can be indirect.

Assays:
[1] = target: FLAG-PA, transiently expressed (UniProt P54821); experiment: co-IP; anti-FLAG beads, lysates of transfected HEK293T cells in IP buffer (50 mM Tris-HCl pH 7.5, 150 mM NaCl, 1 mM EDTA, 1% NP-40), overnight at 4°C; DNase I added in one panel; IR or ETP treatment in the panels of FLAG- with EGFP-PRRX1
[2] = target: FLAG-PB, transiently expressed (UniProt P54821); experiment: as above
MBP-PA ΔN (9–217 aa) = MBP-PA ΔN (9–217 aa) (UniProt P54821); experiment: pull-down; MBP pull-down on amylose resin: 2.5 μg MBP-PRRX1 with ∼3 μg GST-Ku70/Ku80, 1 μg His-Ku70/Ku80 heterodimer or 2 μg His-PRRX1 in 400 μl NETN buffer (20 mM Tris-HCl pH 8.0, 100 mM NaCl, 0.5 mM EDTA, 0.5% NP-40), 4°C; both purified
MBP-PRRX1B = MBP-PRRX1B (UniProt P54821); experiment: as above
MBP-PRRX1A = experiment: pull-down; both purified

With EGFP-PB (from UniProt P54821) the binding [1] was “binds” and the binding [2] was “binds”.

His-PRRX1B (from UniProt P54821) was tested, and the binding (MBP-PA ΔN (9–217 aa)) was “binds” and the binding (MBP-PRRX1B) was “binds”.

In the case of GRKKRRQRRRQALERVFER (biotin at the N-terminus) [competing peptide], the binding (MBP-PRRX1A) is reported as “binds”.
